{"sequences": {"note": "Amino acid sequences for entries named in this document (tags omitted). A change or cut given only in a name is not applied to a line headed by its entry. Residues count along the entry.", "UniProt P15208, residues 28-1372": "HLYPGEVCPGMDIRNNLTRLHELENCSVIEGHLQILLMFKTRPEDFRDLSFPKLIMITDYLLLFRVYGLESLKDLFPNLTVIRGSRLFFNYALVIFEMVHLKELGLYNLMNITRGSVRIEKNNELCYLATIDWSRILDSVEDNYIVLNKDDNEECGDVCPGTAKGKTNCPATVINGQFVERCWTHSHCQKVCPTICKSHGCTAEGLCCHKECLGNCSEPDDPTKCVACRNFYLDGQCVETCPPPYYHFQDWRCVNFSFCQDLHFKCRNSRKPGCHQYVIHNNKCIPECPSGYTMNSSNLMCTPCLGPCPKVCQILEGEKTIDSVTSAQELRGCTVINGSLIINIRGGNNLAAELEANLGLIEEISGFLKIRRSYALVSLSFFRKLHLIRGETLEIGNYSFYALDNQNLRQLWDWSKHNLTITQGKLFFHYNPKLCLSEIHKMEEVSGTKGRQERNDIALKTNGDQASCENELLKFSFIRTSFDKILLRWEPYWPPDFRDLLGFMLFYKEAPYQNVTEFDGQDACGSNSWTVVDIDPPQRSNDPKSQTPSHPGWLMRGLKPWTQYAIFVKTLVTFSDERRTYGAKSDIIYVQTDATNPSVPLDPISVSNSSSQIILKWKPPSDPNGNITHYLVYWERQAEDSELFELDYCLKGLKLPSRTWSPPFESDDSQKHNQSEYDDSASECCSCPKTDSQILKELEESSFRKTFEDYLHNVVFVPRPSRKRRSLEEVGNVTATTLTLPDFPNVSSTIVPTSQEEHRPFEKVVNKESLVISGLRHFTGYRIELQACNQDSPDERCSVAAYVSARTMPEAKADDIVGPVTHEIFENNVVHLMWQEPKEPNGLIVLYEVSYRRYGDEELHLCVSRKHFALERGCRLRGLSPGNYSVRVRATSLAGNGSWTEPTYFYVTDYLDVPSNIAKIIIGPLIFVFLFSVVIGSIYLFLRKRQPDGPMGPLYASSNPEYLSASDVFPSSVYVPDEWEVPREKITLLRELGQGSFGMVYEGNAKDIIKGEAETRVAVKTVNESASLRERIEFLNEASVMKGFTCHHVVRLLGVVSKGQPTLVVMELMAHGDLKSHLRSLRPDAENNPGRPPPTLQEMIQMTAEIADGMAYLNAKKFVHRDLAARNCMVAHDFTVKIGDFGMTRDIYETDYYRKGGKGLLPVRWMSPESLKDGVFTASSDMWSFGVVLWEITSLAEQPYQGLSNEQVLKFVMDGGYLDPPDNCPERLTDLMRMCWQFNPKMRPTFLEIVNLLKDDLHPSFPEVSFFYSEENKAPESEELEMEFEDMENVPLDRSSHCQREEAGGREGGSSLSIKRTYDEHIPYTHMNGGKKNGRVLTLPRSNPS", "UniProt Q9WTX6": "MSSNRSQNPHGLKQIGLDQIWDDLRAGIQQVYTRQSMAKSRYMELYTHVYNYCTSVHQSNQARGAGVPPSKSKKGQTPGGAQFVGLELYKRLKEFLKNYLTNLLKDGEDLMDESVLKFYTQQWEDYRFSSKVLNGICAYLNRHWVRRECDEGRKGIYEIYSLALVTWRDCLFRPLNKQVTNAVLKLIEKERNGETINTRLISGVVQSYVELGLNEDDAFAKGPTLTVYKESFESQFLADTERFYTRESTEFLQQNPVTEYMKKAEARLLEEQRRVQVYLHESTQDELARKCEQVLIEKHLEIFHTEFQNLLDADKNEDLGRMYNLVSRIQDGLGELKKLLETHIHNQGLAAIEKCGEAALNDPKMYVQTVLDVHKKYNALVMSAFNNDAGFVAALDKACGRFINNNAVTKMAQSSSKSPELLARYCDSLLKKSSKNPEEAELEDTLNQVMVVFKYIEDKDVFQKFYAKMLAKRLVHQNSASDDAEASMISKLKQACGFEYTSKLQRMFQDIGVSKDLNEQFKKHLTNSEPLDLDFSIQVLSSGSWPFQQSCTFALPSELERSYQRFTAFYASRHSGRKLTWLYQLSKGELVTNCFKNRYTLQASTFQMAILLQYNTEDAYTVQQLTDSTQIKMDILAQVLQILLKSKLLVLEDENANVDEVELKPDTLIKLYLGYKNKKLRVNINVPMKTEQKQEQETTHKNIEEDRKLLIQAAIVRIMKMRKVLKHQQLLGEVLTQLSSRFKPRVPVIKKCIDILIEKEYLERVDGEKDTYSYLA", "UniProt P06213, residues 28-1382": "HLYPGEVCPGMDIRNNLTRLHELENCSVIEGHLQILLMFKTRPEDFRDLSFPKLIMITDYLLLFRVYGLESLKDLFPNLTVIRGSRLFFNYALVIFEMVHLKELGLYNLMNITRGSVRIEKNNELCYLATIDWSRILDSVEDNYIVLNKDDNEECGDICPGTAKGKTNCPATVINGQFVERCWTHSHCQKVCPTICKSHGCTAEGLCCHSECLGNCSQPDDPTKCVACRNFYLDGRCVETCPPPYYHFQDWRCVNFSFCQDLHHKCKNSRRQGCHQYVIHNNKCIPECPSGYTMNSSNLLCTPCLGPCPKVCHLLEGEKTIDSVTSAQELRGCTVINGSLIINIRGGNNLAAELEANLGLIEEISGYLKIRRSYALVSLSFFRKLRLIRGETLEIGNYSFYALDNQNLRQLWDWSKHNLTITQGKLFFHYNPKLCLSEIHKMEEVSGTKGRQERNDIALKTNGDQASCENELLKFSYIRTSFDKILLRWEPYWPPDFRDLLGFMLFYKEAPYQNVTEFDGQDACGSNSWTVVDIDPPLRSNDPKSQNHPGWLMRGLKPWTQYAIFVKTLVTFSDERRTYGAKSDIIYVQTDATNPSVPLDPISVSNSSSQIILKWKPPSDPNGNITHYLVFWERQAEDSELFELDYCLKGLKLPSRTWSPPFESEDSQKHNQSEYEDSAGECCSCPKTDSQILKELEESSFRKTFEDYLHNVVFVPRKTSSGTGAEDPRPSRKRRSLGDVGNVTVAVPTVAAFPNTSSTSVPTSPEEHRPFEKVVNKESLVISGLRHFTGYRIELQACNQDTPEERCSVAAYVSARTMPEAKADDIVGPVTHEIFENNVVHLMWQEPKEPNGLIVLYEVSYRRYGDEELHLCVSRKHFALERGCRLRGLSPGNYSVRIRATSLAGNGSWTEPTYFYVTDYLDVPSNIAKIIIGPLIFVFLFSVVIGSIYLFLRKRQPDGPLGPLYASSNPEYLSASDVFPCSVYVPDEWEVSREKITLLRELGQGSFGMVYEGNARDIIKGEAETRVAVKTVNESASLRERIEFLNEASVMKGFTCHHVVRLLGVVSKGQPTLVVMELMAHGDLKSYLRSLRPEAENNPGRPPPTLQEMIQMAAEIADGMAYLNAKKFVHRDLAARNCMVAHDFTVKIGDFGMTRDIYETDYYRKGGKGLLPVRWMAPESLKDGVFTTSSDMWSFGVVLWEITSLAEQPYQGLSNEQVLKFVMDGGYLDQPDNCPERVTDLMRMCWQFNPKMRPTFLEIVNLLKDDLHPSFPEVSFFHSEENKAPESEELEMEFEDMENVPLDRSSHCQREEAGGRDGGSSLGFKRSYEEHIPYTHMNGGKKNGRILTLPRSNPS"}, "source": "paper PMC13631264", "molecules": {"B1": {"name": "FBXO2 (endogenous in HEK293T cells) (protein, UniProt Q9UK22 1-296)", "chain": "MDGDGDPESVGQPEEASPEEQPEEASAEEERPEDQQEEEAAAAAAYLDELPEPLLLRVLAALPAAELVQACRLVCLRWKELVDGAPLWLLKCQQEGLVPEGGVEEERDHWQQFYFLSKRRRNLLRNPCGEEDLEGWCDVEHGGDGWRVEELPGDSGVEFTHDESVKKYFASSFEWCRKAQVIDLQAEGYWEELLDTTQPAIVVKDWYSGRSDAGCLYELTVKLLSEHENVLAEFSSGQVAVPQDSDGGGWMEISHTFTDYGPGVRFVRFEHGGQDSVYWKGWFGARVTNSSVWVEP"}, "B2": {"name": "FBXO2 (endogenous, mouse) (protein, UniProt Q80UW2 1-297)", "chain": "MDGDGDPESVSHPEEASPEEQPEEAGAEASAEEEQLREAEEEEEAEAVEYLAELPEPLLLRVLAELPATELVQACRLVCLRWKELVDGAPLWLLKCQQEGLVPEGSADEERDHWQQFYFLSKRRRNLLRNPCGEEDLEGWSDVEHGGDGWRVEELPGDNGVEFTQDDSVKKYFASSFEWCRKAQVIDLQAEGYWEELLDTTQPAIVVKDWYSGRTDAGSLYELTVRLLSENEDVLAEFATGQVAVPEDGSWMEISHTFIDYGPGVRFVRFEHGGQDSVYWKGWFGARVTNSSVWVEP"}, "B3": {"name": "FBXO2 in 293T cells (Co-IP of Fig. S2B) (protein, UniProt Q80UW2 1-297)", "chain": "B2 chain"}}, "key": {"[1]": {"biological_target": "insulin receptor (endogenous, mouse) (mouse (endogenous in 3T3-L1 and in mouse sWAT)) (UniProt P15208)", "assay": "co-IP; whole cell lysates from 3T3-L1 cells, immunoprecipitated and immunoblotted with antibodies against the indicated proteins; Pierce IP kit"}, "FBXO2-Flag (1-297)": {"biological_target": "T1, FBXO2-Flag (1-297) (UniProt Q80UW2)", "T1 sequence": "B2 chain", "assay": "co-IP; Western blot of the Flag-peptide eluate of the anti-FLAG purification from HEK293T cells transfected with IR-Flag (Fig. S2A) or FBXO2-Flag (Fig. S2C)"}, "[2]": {"biological_target": "IR-Flag (insulin receptor with Flag tag) (UniProt P15208)", "assay": "co-IP; Western blot of the Flag-peptide eluate of the anti-FLAG purification from HEK293T cells transfected with IR-Flag (Fig. S2A) or FBXO2-Flag (Fig. S2C)"}, "[3]": {"biological_target": "insulin receptor (endogenous, mouse) (mouse (endogenous in 3T3-L1 and in mouse sWAT)) (UniProt P15208)", "assay": "co-IP; subcutaneous white adipose tissue of mice; Pierce IP kit"}, "[4]": {"biological_target": "insulin receptor in 293T cells (Co-IP of Fig. S2B) (UniProt P15208)", "assay": "co-IP; 293T cells (Fig. S2B); constructs not told"}}, "note": "No constants are given. Whether binding was seen depends on the method and setting. Binding seen in cells or lysates may run through a third protein. Some results given as binding are weak or reduced against the parent protein; the word gives no strength. For part of these data: Tags and fused reporters may be left off the sequences shown."}
{"molecule": "Cullin1 (endogenous in 3T3-L1 cells) (from UniProt Q9WTX6 1-776)", "values": [{"measurement": "binding", "setting": "[1]", "result": "binds"}]}
{"molecule": "insulin receptor (endogenous in HEK293T cells) (from UniProt P06213 28-1382)", "values": [{"measurement": "binding", "setting": "FBXO2-Flag (1-297)", "result": "binds"}]}
{"molecule": "B1", "values": [{"measurement": "binding", "setting": "[2]", "result": "binds"}]}
{"molecule": "B2", "values": [{"measurement": "binding", "setting": "[3]", "result": "binds"}, {"measurement": "binding", "setting": "[1]", "result": "binds"}]}
{"molecule": "B3", "values": [{"measurement": "binding", "setting": "[4]", "result": "binds"}]}
